Data: publication PMC7055043
No constants are given. Whether binding was seen depends on the method and setting. Binding seen in cells or lysates may run through a third protein. Some binding calls cover weakened binding; strength is not graded here.

Columns and labels:
[1] = target: myc-ΔCBD-ΔCT (Chi3L1 deleted of both CBD and CT regions) (UniProt P36222); experiment: co-IP; A549 lung cancer cells transfected with myc-tagged Chi3L1 constructs; lysates immunoprecipitated with anti-Myc antibody and Protein A agarose, Western blot with anti-p53
[2] = target: Myc-tagged full-length Chi3L1 (Chitinase 3-like-1) (UniProt P36222); experiment: as above
[3] = target: endogenous Chi3L1 (human lung tissue) (human (endogenous in lung tissue)) (UniProt P36222); experiment: co-IP; lysates of human lung cancer patient tissues and normal lung tissues immunoprecipitated with anti-Chi3L1 (or control IgG) and Protein A agarose, Western blot with anti-Chi3L1 and anti-p53

| binding [1] | binding [2] | binding [3] | Substance |
| --- | --- | --- | --- |
| no binding | binds |  | endogenous p53 (A549 lung cancer cells) (from UniProt P04637 1-393) |
|  |  | binds | endogenous p53 (human lung tissue) (from UniProt P04637 1-393) |
